Source: US20010006673A1, “LUTEIN- CONTAINING SUPPLEMENT AND PROCESS FOR ENHANCING IMMUNE RESPONSE IN ANIMALS” (priority 1998, published 2001)

Legend:
[1] = Plasma extraction and HPLC analysis in dogs (lutein+zeaxanthin, retinol, α-tocopherol); type: in vivo, Beagle dogs
Procedure: Fifty six female Beagle dogs (17 to 18 months old; average body weight 11.4±0.4 kg) were randomly assigned to be supplemented daily with 0, 5, 10 or 20 mg lutein for 17 weeks. The lutein contained 76.66% lutein and 5.23% zeaxanthin. The lutein supplement was resuspended in soybean oil to the appropriate concentration and 1 mL administered perorally at 0800 h daily. Food (200 g/dog/d) was offered immediately after the lutein supplementation. The basal diet shown in Table 1 below met or exceeded the requirements for all essential nutrients (NRC 1985).
(§1) Blood was collected by jugular venipuncture into heparinized evacuated tubes on weeks 0, 2, 4, 8 and 12 and aliquots used for HPLC analysis and for assessing immune responses.
Plasma was extracted for analysis of lutein, zeaxanthin, retinol and α-tocopherol. Briefly, plasma protein was precipitated by adding an equal volume of ethanol containing 0.1% butylated hydroxytoluene (BHT) (Aldrich Chemical Co., Milwaukee, Wis.). The mixture was extracted with 5 mL of a 1:1 mixture of petroleum ether:anhydrous diethyl ether.
The dried residue was resuspended in mobile phase consisting of a 47:47:6 (v:v:v) mixture of HPLC-grade acetonitrile: methanol: chloroform (Fisher Scientific, Fair Lawn, N.J.). Lutein, zeaxanthin and α-tocopherol were quantitated by comparing the area under the curve whereas retinol was quantitated using peak height. The identity of the eluted compounds was confirmed by comparing their absorption spectrum with that of pure standards. Because baseline separation of lutein and zeaxanthin was not accomplished, plasma concentrations were reported as lutein+zeaxanthin.

[2] = type: in vivo, Tabby cats; conditions: cats
Procedure: as §1
Plasma lutein, retinol and α-tocopherol were analyzed by reverse phase HPLC. Briefly, plasma protein was precipitated with an equal volume of ethanol containing 0.1% butylated hydroxytoluene (BHT) (Aldrich Chemical Co., Milwaukee, Wis.). The mixture was extracted with 5 mi of a 1:1 mixture of petroleum ether:anhydrous diethyl ether and the dried residue resuspended in mobile phase. The mobile phase was a mixture of acetonitrile, methanol and chloroform (47:47:6, v/v/v). The internal standard used was retinyl acetate (Sigma Chem. Co., St. Louis, Mo.). Samples were eluted on a 5 μm C18 reverse phase column (3.9×150 mm; Resolve, Millipore Corp., Milford Mass.) with a flow rate of 1.0 ml/min. The identity of the eluted compounds was verified by comparing their absorption spectra with those of standard compounds.

[3] = across all treatments and all periods

For `CC1=C[C@H](O)CC(C)(C)[C@H]1/C=C/C(C)=C/C=C/C(C)=C/C=C/C=C(C)/C=C/C=C(C)/C=C/C1=C(C)C[C@@H](O)CC1(C)C` [lutein], the “Effect on plasma retinol and α-tocopherol” value [1] was “did not influence”, the Plasma retinol average [1, 3] was 3.63 ± 0.14 µmol/L and the “Plasma α-tocopherol average” value [1, 3] was 37 ± 2 µmol/L. For the same compound, the “Effect on plasma retinol and α-tocopherol” value [2] was “did not influence”, the Plasma retinol average [2] was 0.56 ± 0.03 µmol/L and the “Plasma α-tocopherol average” value [2] was 14.9 ± 0.9 µmol/L.

Where two headings read alike, the source gives them in different places.
